PubChem BioAssay AID1259308, NCATS | 2017
Shown is an unselected part of about 59,000 reagents. About 1,510 of all reagents (2.6%) count as active. 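Calls use total luciferase alone and ignore viability, so some active siRNAs may act by altering cell number.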 Reagents against one gene are numbered here. Further read-outs or replicates are left out here.

Assay: 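Candidate targets for better recombinant protein yield in mammalian cells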 (primary screen)
System: human HEK293 embryonic kidney cells stably expressing firefly luciferase (HEK-CMV-Luc2-Hygro)
Knock-down reagent: single siRNA against human genes, 0.8 pmol siRNA per well
Timing: 72 h
Detection: 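Reporter luminescence and viable-cell signal on separate replicate plates, given as percent of non-targeting control and median/MAD z-scores, plus per-cell luciferase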
Scale: total luciferase, z-score: higher = more reporter protein produced
Hit rule: 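Active when the median/MAD z-score for overall luciferase is greater than 3; a gene was taken forward for validation with new siRNAs if at least two of its three siRNAs passed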
Meaning of the calls: active = raised luciferase; inactive = no rise

no.	gene	reagent	total luciferase, z-score	Outcome
1	ATP6V1C1	1	-0.119	inactive
2	ATP6V1C1	2	2.99	inactive
3	ATP6V1C1	3	0.352	inactive
4	BSG	1	-0.572	inactive
5	BSG	2	0.237	inactive
6	BSG	3	-0.424	inactive
7	SLC22A31	1	0.158	inactive
8	SLC22A31	2	-0.00464	inactive
9	SLC22A31	3	2.67	inactive
10	DNASE1	1	1.42	inactive
11	DNASE1	2	-0.696	inactive
12	DNASE1	3	0.017	inactive
13	PPP6R3	1	0.681	inactive
14	PPP6R3	2	-1	inactive
15	PPP6R3	3	0.738	inactive
16	GLYR1	1	0.293	inactive
17	GLYR1	2	-0.0426	inactive
18	GLYR1	3	0.853	inactive
19	CD6	1	0.527	inactive
20	CD6	2	-0.606	inactive
21	CD6	3	-0.381	inactive
22	OR2J2	1	0.177	inactive
23	OR2J2	2	0.71	inactive
24	OR2J2	3	1.1	inactive

Look-ups from the list.
GLYR1 #2, Outcome → inactive
Entry for GLYR1 #3 under “total luciferase, z-score”: 0.853
